# Laboratory results as given in the supplement of paper PMC8728848.
# This is one part of the list.
# What was measured:
# Test in all cases: glycan array binding signal (z-score within array); higher = stronger binding
# Conditions in all cases: glycan notation: IUPAC condensed, linker removed
# [1] = target: Gal(b1-3)GlcNAc(b1-2)Man(a1-3)[Gal(b1-3)GlcNAc(b1-2)Man(a1-6)]Man(b1-4)GlcNAc(b1-4)[Fuc(a1-6)]GlcNAc
# Outline: (§1)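 Negative Z-scores can be read as non-binding. The Z-score is calculated within each array and then averaged across arrays of one protein sequence at different concentrations or buffers and across linkers. Arrays, 3228 in all, were curated from the Consortium for Functional Glycomics database and kept only where the protein sequence was available.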
# [2] = target: Gal(b1-3)GlcNAc(b1-3)Gal(b1-3)GlcNAc
# Outline: as §1
# [3] = target: Gal(b1-3)GlcNAc(b1-3)Gal(b1-4)Glc
# Outline: as §1
# [4] = target: Gal(b1-3)GlcNAc(b1-3)Gal(b1-4)GlcNAc
# Outline: as §1
# [5] = target: Gal(b1-3)GlcNAc(b1-3)Gal(b1-4)GlcNAc(b1-6)[Gal(b1-3)GlcNAc(b1-3)]Gal(b1-4)Glc
# Outline: as §1
# [6] = target: Gal(b1-3)GlcNAc(b1-3)Gal(b1-4)[Fuc(a1-3)]GlcNAc(b1-6)[Gal(b1-3)GlcNAc(b1-3)]Gal(b1-4)Glc
# Outline: as §1
# [7] = target: Gal(b1-3)GlcNAc(b1-3)GalNAc
# Outline: as §1
# [8] = target: Gal(b1-3)GlcNAc(b1-6)Gal(b1-4)GlcNAc
# Outline: as §1
# [9] = target: Gal(b1-3)[Fuc(a1-4)]GlcNAc
# Outline: as §1
# [10] = target: Gal(b1-3)[Fuc(a1-4)]GlcNAc(b1-2)Man(a1-3)[Gal(b1-3)[Fuc(a1-4)]GlcNAc(b1-2)Man(a1-6)]Man(b1-4)GlcNAc(b1-4)GlcNAc
# Outline: as §1
# [11] = target: Gal(b1-3)[Fuc(a1-4)]GlcNAc(b1-2)Man(a1-3)[Gal(b1-3)[Fuc(a1-4)]GlcNAc(b1-2)Man(a1-6)]Man(b1-4)GlcNAc(b1-4)[Fuc(a1-6)]GlcNAc
# Outline: as §1
# [12] = target: Gal(b1-3)[Fuc(a1-4)]GlcNAc(b1-3)Gal(b1-3)[Fuc(a1-4)]GlcNAc
# Outline: as §1
# [13] = target: Gal(b1-3)[Fuc(a1-4)]GlcNAc(b1-3)Gal(b1-4)GlcNAc
# Outline: as §1
# [14] = target: Gal(b1-3)[Fuc(a1-4)]GlcNAc(b1-3)Gal(b1-4)[Fuc(a1-3)]GlcNAc
# Outline: as §1
# [15] = target: Gal(b1-3)[GlcNAc(b1-6)]GalNAc
# Outline: as §1
# [16] = target: Gal(b1-3)[Neu5Ac(a2-6)]GalNAc
# Outline: as §1
# [17] = target: Gal(b1-3)[Neu5Ac(a2-6)]GlcNAc(b1-6)Gal(b1-4)Glc
# Outline: as §1
# [18] = target: Gal(b1-3)[Neu5Ac(b2-6)]GalNAc
# Outline: as §1
# [19] = target: Gal(b1-4)GalNAc(a1-3)[Fuc(a1-2)]Gal(b1-4)GlcNAc
# Outline: as §1
# [20] = target: Gal(b1-4)GalNAc(b1-3)[Fuc(a1-2)]Gal(b1-4)GlcNAc
# Outline: as §1
# [21] = target: Gal(b1-4)Glc
# Outline: as §1
# [22] = target: Gal(b1-4)Glc6S
# Outline: as §1
# [23] = target: Gal(b1-4)GlcNAc
# Outline: as §1
# [24] = target: Gal(b1-4)GlcNAc(a1-6)Gal(b1-4)GlcNAc
# Outline: as §1
# [25] = target: Gal(b1-4)GlcNAc(b1-2)Man(a1-3)Man(b1-4)GlcNAc(b1-4)GlcNAc
# Outline: as §1
# [26] = target: Gal(b1-4)GlcNAc(b1-2)Man(a1-3)[Gal(b1-4)GlcNAc(b1-2)Man(a1-6)]Man(b1-4)GlcNAc(b1-4)GlcNAc
# Outline: as §1
# [27] = target: Gal(b1-4)GlcNAc(b1-2)Man(a1-3)[Gal(b1-4)GlcNAc(b1-2)Man(a1-6)]Man(b1-4)GlcNAc(b1-4)[Fuc(a1-6)]GlcNAc
# Outline: as §1
# [28] = target: Gal(b1-4)GlcNAc(b1-2)Man(a1-3)[GlcNAc(b1-2)Man(a1-6)]Man(b1-4)GlcNAc(b1-4)GlcNAc
# Outline: as §1
# [29] = target: Gal(b1-4)GlcNAc(b1-2)Man(a1-3)[Man(a1-6)]Man(b1-4)GlcNAc(b1-4)GlcNAc
# Outline: as §1
# [30] = target: Gal(b1-4)GlcNAc(b1-2)Man(a1-6)Man(b1-4)GlcNAc(b1-4)GlcNAc
# Outline: as §1
# [31] = target: Gal(b1-4)GlcNAc(b1-2)Man(a1-6)[GlcNAc(b1-2)Man(a1-3)]Man(b1-4)GlcNAc(b1-4)GlcNAc
# Outline: as §1
# [32] = target: Gal(b1-4)GlcNAc(b1-2)Man(a1-6)[Man(a1-3)]Man(b1-4)GlcNAc(b1-4)GlcNAc
# Outline: as §1
# [33] = target: Gal(b1-4)GlcNAc(b1-2)[Gal(b1-4)GlcNAc(b1-4)]Man(a1-3)[Gal(b1-4)GlcNAc(b1-2)Man(a1-6)]Man(b1-4)GlcNAc(b1-4)GlcNAc
# Outline: as §1
# [34] = target: Gal(b1-4)GlcNAc(b1-2)[Gal(b1-4)GlcNAc(b1-4)]Man(a1-3)[Gal(b1-4)GlcNAc(b1-2)[Gal(b1-4)GlcNAc(b1-6)]Man(a1-6)]Man(b1-4)GlcNAc(b1-4)GlcNAc
# Outline: as §1
# [35] = target: Gal(b1-4)GlcNAc(b1-3)Gal(b1-3)GlcNAc
# Outline: as §1
# [36] = target: Gal(b1-4)GlcNAc(b1-3)Gal(b1-4)Glc
# Outline: as §1
# [37] = target: Gal(b1-4)GlcNAc(b1-3)Gal(b1-4)GlcNAc
# Outline: as §1
# [38] = target: Gal(b1-4)GlcNAc(b1-3)Gal(b1-4)GlcNAc(b1-3)Gal(b1-4)GlcNAc
# Outline: as §1
binder,measurement,setting,value
"PEB3 (Campylobacter jejuni), Q0PBL7 (protein) MKKIITLFGACALAFSMANADVNLYGPGGPHTALKDIANKYSEKTGVKVNVNFGPQATWFEKAKKDADILFGASDQSALAIASDFGKDFNVSKIKPLYFREAIILTQKGNPLKIKGLKDLANKKVRIVVPEGAGKSNTSGTGVWEDMIGRTQDIKTIQNFRNNIVAFVPNSGSARKLFAQDQADAWITWIDWSKSNPDIGTAVAIEKDLVVYRTFNVIAKEGASKETQDFIAYLSSKEAKEIFKKYGWRE",glycan array binding signal (z-score),[1],0.471
same,glycan array binding signal (z-score),[2],-0.637
same,glycan array binding signal (z-score),[3],0.239
same,glycan array binding signal (z-score),[4],-1.33
same,glycan array binding signal (z-score),[5],-0.921
same,glycan array binding signal (z-score),[6],0.098
same,glycan array binding signal (z-score),[7],-0.449
same,glycan array binding signal (z-score),[8],-0.898
same,glycan array binding signal (z-score),[9],-0.192
same,glycan array binding signal (z-score),[10],1.83
same,glycan array binding signal (z-score),[11],1.72
same,glycan array binding signal (z-score),[12],0.879
same,glycan array binding signal (z-score),[13],-0.218
same,glycan array binding signal (z-score),[14],-0.524
same,glycan array binding signal (z-score),[15],-0.504
same,glycan array binding signal (z-score),[16],-1.27
same,glycan array binding signal (z-score),[17],1.35
same,glycan array binding signal (z-score),[18],-0.776
same,glycan array binding signal (z-score),[19],-0.497
same,glycan array binding signal (z-score),[20],-0.05
same,glycan array binding signal (z-score),[21],-1.22
same,glycan array binding signal (z-score),[22],-0.518
same,glycan array binding signal (z-score),[23],-0.089
same,glycan array binding signal (z-score),[24],-0.204
same,glycan array binding signal (z-score),[25],2.37
same,glycan array binding signal (z-score),[26],0.498
same,glycan array binding signal (z-score),[27],1.56
same,glycan array binding signal (z-score),[28],-0.682
same,glycan array binding signal (z-score),[29],-0.506
same,glycan array binding signal (z-score),[30],-0.494
same,glycan array binding signal (z-score),[31],0.783
same,glycan array binding signal (z-score),[32],-1.06
same,glycan array binding signal (z-score),[33],0.173
same,glycan array binding signal (z-score),[34],0.559
same,glycan array binding signal (z-score),[35],0.486
same,glycan array binding signal (z-score),[36],0.676
same,glycan array binding signal (z-score),[37],-1.22
same,glycan array binding signal (z-score),[38],-0.268

# Rewritten as tab-separated lines: part of the list above
binder	measurement	setting	value
PEB3 (Campylobacter jejuni), Q0PBL7 (protein) MKKIITLFGACALAFSMANADVNLYGPGGPHTALKDIANKYSEKTGVKVNVNFGPQATWFEKAKKDADILFGASDQSALAIASDFGKDFNVSKIKPLYFREAIILTQKGNPLKIKGLKDLANKKVRIVVPEGAGKSNTSGTGVWEDMIGRTQDIKTIQNFRNNIVAFVPNSGSARKLFAQDQADAWITWIDWSKSNPDIGTAVAIEKDLVVYRTFNVIAKEGASKETQDFIAYLSSKEAKEIFKKYGWRE	glycan array binding signal (z-score)	[3]	0.239
same	glycan array binding signal (z-score)	[16]	-1.27
same	glycan array binding signal (z-score)	[28]	-0.682
